Experimental data: PubChem BioAssay AID1508597 (Cure First, 2020)
Test: 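Genes whose silencing sensitises or protects ovarian cancer cells against rucaparib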 (primary screen). Cell system: human ovarian carcinoma lines grown from tumours: OCI-P5x (papillary serous) and OCI-C5x (clear cell). Reagents: siRNA pool against human genes, 1.25 pmol siRNA per well. Time to read-out: 72 h or 96 h, depending on the cell culture. Conditions: rucaparib 20 µM (about IC30) or vehicle, present until read-out. Rucaparib or vehicle: Vehicle. Cell line: OCI-C5x (clear cell). Read-out: 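ATP luminescence measured at 72 or 96 h according to the culture, then normalised and expressed as percent viability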. Scale: viability, normalised: higher = more viable cells remaining. Active means: 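Active when normalised viability falls below 80 percent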. Calls: active = viability under 80%; inactive = viability 80% or more.
Shown is a random part of the about 2,100 reagents, in one setting of the screen. 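Calls flag viability under 80% in either arm, not effects specific to rucaparib; the reference for percent is not stated.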 Some reagents were tested in more than one well and are listed for each. No sequences are given here. The record does not give: the 100% reference.

| Target gene | PubChem SID | technical replicate | viability, normalised (%) | Call |
| --- | --- | --- | --- | --- |
| ZAP70 | SID405527552 | 1 | 71.7 | active |
| ZAP70 | SID405527552 | 2 | 80.8 | inactive |
| ZAP70 | SID405527552 | 3 | 79.4 | active |
| CHIC1 | SID405528109 | 1 | 53 | active |
| CHIC1 | SID405528109 | 2 | 50.9 | active |
| CHIC1 | SID405528109 | 3 | 53.4 | active |
| PHF1 | SID405527138 | 1 | 39.6 | active |
| PHF1 | SID405527138 | 2 | 36.3 | active |
| PHF1 | SID405527138 | 3 | 43.7 | active |
| HDAC5 | SID405526843 | 1 | 33.9 | active |
| HDAC5 | SID405526843 | 2 | 50.4 | active |
| HDAC5 | SID405526843 | 3 | 56.4 | active |
| CSNK1G3 | SID405527633 | 1 | 115 | inactive |
| CSNK1G3 | SID405527633 | 2 | 65.4 | active |
| CSNK1G3 | SID405527633 | 3 | 63.5 | active |
| TDRD9 | SID405526548 | 1 | 55.7 | active |
| TDRD9 | SID405526548 | 2 | 56.2 | active |
| TDRD9 | SID405526548 | 3 | 60.3 | active |
| NAP1L4 | SID405527059 | 1 | 42.5 | active |
| NAP1L4 | SID405527059 | 2 | 36.1 | active |
| NAP1L4 | SID405527059 | 3 | 48.3 | active |
| DNAJC5 | SID405528250 | 1 | 118 | inactive |
| DNAJC5 | SID405528250 | 2 | 70.7 | active |
| DNAJC5 | SID405528250 | 3 | 93.4 | inactive |
| POLB | SID405528253 | 1 | 91.8 | inactive |
| POLB | SID405528253 | 2 | 60.9 | active |
| POLB | SID405528253 | 3 | 53.1 | active |
| DNMT3B | SID405528236 | 1 | 38.6 | active |
| DNMT3B | SID405528236 | 2 | 53.8 | active |
| DNMT3B | SID405528236 | 3 | 38.8 | active |
| RHO | SID405527246 | 1 | 26.2 | active |
| RHO | SID405527246 | 2 | 18.2 | active |
| RHO | SID405527246 | 3 | 23.3 | active |
| HDAC1 | SID405526836 | 1 | 53.4 | active |
| HDAC1 | SID405526836 | 1 | 36.4 | active |
| HDAC1 | SID405526836 | 2 | 37.9 | active |
| HDAC1 | SID405526836 | 2 | 44 | active |
| HDAC1 | SID405526836 | 3 | 54.8 | active |
| HDAC1 | SID405526836 | 3 | 42.1 | active |

Entries listed so far whose gene name starts with D or d (6):
| Target gene | PubChem SID | technical replicate | viability, normalised (%) | Call |
| --- | --- | --- | --- | --- |
| DNAJC5 | SID405528250 | 1 | 118 | inactive |
| DNAJC5 | SID405528250 | 2 | 70.7 | active |
| DNAJC5 | SID405528250 | 3 | 93.4 | inactive |
| DNMT3B | SID405528236 | 1 | 38.6 | active |
| DNMT3B | SID405528236 | 2 | 53.8 | active |
| DNMT3B | SID405528236 | 3 | 38.8 | active |
